Counter-ions that a name gives are not always drawn. The list shows a part of the results. The calls rarely recur for the same compound in another form.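 Kinases, fused to nanoluciferase, were expressed in K562 cells; luminescence was measured every 4 h from 2 to 18 h as percent of control (DMSO = 100%, positive control = 0%). A time point is decreased if signal falls significantly (2 sigma). Hits were called by the authors by a rule that is not shown; the count of time points alone does not decide it.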
Tests used:
Assay in all cases: number of time points (of 5) at which kinase-Nluc abundance scored as decreased, DMSO-normalised (count); higher = more persistent destabilization
Conditions in all cases: K562; 2-18 h
ALK = ALK (UniProt Q9UM73)
ARAF = ARAF (UniProt P10398)
AURKA = AURKA (UniProt O14965)
AURKB = AURKB (UniProt Q96GD4)
AURKC = AURKC (UniProt Q9UQB9)
BLK = BLK (UniProt P51451)
BMX = BMX (UniProt P51813)
BRAF = BRAF (UniProt P15056)
BRAF_V600E = test system: BRAF_V600E
BTK = BTK (UniProt Q06187)
CAMK2A = CAMK2A (UniProt Q9UQM7)
CAMK2G = CAMK2G (UniProt Q13555)
CDK10 = CDK10 (UniProt Q15131)
CDK2 = CDK2 (UniProt P24941)
CDK3 = CDK3 (UniProt Q00526)
CDK5 = CDK5 (UniProt Q00535)
CDK6 = CDK6 (UniProt Q00534)
CHEK2 = CHEK2 (UniProt O96017)
CSF1R = CSF1R (UniProt P07333)
CSK = CSK (UniProt P41240)

Protein sequences, listed by entry. Tags and fused reporters are not part of them. Lines headed by an entry give the natural chain unless they say otherwise; changes in a name come on top.
UniProt Q9UM73: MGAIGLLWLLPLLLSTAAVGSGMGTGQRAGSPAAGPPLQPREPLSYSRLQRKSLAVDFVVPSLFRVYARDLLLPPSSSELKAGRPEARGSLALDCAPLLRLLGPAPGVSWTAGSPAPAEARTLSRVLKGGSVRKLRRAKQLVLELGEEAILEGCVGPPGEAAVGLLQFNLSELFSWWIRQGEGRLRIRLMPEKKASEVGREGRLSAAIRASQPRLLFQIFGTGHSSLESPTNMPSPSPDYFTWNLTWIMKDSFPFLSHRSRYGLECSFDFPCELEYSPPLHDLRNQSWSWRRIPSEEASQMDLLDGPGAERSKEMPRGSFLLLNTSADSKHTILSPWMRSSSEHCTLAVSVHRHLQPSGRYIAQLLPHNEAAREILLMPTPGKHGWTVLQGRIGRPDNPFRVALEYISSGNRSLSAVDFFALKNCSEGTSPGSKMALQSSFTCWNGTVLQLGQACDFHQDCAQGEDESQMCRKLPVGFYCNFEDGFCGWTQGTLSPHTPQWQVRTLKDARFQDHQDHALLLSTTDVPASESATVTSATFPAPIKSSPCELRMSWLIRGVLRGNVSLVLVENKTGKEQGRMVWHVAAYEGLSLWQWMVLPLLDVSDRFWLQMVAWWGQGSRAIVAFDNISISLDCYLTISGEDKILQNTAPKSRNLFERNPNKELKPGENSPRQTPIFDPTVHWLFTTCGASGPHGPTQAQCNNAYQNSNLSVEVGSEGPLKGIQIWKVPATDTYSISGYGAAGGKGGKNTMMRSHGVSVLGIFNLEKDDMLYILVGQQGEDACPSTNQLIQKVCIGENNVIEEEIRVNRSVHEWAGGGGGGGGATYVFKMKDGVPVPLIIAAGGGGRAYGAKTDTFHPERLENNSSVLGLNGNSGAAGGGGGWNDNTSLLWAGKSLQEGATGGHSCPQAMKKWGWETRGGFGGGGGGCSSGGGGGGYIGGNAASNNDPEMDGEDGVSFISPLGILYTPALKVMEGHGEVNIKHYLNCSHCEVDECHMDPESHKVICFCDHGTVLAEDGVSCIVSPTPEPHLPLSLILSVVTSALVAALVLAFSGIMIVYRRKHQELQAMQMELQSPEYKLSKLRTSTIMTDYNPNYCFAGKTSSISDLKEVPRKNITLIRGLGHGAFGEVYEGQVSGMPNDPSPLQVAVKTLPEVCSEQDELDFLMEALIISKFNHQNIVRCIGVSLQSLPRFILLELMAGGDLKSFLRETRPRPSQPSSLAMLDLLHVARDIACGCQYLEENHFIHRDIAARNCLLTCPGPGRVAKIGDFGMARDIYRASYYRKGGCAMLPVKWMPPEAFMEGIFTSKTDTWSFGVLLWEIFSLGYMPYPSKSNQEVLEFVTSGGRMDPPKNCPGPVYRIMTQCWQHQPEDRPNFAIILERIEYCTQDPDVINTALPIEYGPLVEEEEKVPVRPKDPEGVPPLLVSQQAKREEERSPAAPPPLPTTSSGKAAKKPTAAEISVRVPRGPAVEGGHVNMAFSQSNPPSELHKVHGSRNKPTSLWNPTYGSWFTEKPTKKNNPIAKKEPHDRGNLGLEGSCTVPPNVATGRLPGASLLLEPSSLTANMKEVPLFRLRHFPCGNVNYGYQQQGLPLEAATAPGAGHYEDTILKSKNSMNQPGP
UniProt P10398: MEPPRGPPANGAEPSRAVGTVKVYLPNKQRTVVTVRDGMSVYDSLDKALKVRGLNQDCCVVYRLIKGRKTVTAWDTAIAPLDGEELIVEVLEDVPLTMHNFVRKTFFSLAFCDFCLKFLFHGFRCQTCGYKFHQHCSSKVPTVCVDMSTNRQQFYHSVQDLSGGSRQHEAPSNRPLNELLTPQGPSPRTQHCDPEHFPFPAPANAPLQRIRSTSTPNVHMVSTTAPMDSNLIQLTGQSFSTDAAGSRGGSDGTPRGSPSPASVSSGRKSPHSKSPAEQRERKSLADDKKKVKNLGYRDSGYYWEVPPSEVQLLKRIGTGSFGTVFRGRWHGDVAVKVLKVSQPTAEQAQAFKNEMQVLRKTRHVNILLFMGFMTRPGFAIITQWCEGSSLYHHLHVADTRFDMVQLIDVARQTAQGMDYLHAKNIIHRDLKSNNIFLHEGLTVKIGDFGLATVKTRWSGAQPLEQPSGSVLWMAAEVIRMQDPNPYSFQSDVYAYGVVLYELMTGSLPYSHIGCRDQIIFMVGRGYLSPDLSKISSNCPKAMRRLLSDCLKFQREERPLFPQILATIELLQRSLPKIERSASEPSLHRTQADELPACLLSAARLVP
UniProt O14965: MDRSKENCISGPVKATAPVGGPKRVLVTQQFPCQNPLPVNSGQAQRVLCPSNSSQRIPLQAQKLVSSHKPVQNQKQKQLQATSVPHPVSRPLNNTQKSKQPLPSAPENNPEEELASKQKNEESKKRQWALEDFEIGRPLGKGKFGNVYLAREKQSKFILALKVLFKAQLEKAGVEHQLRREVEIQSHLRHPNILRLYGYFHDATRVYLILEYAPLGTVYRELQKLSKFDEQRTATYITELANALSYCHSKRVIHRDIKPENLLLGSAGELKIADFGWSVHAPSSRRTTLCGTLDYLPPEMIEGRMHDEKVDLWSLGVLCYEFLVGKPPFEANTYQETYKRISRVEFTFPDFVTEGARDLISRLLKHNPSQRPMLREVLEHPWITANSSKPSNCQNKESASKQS
UniProt Q9UQB9: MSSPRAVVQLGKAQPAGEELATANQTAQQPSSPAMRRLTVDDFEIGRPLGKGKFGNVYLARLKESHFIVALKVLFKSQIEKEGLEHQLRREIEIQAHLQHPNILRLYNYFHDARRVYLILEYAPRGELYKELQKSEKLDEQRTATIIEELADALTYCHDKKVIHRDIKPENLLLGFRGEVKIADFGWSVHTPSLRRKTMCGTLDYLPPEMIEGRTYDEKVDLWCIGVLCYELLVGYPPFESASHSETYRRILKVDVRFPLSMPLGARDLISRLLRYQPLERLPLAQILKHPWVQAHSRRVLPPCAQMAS
UniProt P15056, whole entry, looked up: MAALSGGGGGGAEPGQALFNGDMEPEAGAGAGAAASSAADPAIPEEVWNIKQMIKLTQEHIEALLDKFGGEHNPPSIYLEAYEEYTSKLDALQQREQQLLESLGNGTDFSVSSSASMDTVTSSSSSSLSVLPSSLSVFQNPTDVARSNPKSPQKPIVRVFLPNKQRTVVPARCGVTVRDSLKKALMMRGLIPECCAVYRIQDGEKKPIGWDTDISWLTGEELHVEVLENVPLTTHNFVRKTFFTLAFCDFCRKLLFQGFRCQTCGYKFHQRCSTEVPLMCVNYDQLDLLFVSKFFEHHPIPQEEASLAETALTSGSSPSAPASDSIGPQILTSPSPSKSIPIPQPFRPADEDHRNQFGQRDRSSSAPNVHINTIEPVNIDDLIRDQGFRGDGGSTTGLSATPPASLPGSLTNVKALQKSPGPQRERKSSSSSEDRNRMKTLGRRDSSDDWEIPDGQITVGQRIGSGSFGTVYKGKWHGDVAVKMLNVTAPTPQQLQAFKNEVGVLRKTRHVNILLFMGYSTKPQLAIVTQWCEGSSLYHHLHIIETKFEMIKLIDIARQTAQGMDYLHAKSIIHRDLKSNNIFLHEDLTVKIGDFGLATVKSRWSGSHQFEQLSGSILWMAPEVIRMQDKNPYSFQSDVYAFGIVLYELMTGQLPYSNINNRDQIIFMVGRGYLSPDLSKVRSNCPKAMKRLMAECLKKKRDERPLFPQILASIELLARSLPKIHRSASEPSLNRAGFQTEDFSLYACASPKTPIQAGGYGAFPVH
UniProt Q9UQM7, whole entry: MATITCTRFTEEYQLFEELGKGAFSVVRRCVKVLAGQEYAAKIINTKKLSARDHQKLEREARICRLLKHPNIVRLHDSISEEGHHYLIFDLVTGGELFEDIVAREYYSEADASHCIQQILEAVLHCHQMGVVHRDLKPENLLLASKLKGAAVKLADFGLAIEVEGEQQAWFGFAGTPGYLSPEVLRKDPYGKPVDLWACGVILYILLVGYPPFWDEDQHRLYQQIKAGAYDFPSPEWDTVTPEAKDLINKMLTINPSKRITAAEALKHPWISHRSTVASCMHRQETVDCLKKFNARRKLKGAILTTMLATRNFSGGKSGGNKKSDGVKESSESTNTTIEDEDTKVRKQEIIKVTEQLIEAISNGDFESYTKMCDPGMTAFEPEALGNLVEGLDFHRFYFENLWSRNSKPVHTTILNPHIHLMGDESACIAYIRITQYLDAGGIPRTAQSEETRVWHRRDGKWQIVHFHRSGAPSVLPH
UniProt Q13555: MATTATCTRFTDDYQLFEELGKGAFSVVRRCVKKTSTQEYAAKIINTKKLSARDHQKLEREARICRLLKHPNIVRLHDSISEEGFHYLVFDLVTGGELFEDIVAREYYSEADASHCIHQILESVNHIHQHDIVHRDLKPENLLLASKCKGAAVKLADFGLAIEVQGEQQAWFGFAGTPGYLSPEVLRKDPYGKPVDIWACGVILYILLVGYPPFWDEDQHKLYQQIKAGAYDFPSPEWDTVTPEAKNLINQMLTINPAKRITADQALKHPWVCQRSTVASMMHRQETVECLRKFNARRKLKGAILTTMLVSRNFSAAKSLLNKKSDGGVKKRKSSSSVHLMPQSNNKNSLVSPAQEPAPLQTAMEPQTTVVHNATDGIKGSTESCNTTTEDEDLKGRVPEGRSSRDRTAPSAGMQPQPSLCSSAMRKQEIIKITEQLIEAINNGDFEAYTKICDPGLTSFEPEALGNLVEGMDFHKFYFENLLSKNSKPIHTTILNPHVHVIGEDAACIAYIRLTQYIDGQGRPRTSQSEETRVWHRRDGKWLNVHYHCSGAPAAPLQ
UniProt Q00526: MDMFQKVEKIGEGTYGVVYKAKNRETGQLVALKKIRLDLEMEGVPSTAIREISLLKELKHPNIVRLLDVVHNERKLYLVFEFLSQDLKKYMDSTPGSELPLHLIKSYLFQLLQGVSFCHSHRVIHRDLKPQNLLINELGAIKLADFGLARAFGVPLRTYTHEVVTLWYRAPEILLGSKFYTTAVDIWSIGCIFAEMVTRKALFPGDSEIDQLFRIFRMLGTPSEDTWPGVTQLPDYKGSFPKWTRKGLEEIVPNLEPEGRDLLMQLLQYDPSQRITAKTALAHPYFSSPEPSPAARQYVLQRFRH
UniProt Q00535, whole entry, looked up: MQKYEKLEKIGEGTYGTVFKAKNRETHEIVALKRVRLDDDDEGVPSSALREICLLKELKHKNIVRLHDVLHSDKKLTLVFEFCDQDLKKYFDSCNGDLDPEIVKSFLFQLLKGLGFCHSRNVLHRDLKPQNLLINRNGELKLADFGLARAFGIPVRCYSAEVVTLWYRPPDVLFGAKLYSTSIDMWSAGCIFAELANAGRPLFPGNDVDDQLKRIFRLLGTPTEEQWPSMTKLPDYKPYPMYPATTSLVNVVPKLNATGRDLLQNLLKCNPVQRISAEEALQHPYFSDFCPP
UniProt O96017, whole entry: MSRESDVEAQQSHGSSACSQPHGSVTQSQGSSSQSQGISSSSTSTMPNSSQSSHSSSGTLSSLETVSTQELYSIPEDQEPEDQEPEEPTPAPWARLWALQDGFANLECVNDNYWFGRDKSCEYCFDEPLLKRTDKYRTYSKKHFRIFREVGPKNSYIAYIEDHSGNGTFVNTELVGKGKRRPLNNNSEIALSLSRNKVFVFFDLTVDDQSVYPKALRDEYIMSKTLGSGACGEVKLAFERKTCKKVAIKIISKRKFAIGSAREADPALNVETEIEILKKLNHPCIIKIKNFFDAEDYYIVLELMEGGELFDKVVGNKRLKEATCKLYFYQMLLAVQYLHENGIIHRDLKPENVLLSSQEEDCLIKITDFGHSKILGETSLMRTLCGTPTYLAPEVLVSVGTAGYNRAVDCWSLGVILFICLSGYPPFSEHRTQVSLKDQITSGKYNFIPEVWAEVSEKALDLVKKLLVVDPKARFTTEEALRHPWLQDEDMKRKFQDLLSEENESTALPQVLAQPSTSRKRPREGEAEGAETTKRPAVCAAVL
UniProt P41240: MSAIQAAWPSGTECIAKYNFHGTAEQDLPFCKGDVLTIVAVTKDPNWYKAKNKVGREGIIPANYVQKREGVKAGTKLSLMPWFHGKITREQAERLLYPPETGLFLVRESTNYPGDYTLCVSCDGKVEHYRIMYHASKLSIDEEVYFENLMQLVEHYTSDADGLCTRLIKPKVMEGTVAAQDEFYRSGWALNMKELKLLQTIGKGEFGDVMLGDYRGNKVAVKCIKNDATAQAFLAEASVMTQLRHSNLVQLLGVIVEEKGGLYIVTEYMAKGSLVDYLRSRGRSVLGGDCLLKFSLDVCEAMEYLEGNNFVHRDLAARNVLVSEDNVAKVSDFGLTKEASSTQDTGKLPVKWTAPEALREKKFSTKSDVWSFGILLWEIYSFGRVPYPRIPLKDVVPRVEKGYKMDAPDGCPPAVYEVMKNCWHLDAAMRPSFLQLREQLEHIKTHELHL

SMILES	number of time points (ALK)	number of time points (ARAF)	number of time points (AURKA)	number of time points (AURKB)	number of time points (AURKC)	number of time points (BLK)	number of time points (BMX)	number of time points (BRAF)	number of time points (BRAF_V600E)	number of time points (BTK)	number of time points (CAMK2A)	number of time points (CAMK2G)	number of time points (CDK10)	number of time points (CDK2)	number of time points (CDK3)	number of time points (CDK5)	number of time points (CDK6)	number of time points (CHEK2)	number of time points (CSF1R)	number of time points (CSK)
CCC(=O)Nc1cccc(Oc2nc(Nc3ccc(N4CCN(C)CC4)cc3OC)ncc2Cl)c1 (10 µM)	0	0	0	0	0	0	0	0	0	0	0	0	0	0	0	0	0	0	0	0
Cc1c(Cl)cccc1S(=O)(=O)Nc1nc(NCCc2ccccc2)nc2c1CN(Cc1ccccc1)CC2 (2.5 µM)	0	0	0	0	0	0	0	2	0	0	0	0	0	0	0	0	4	0	0	0
CC(Cc1ccc(O)c(O)c1)C(C)Cc1ccc(O)c(O)c1 (stereo not given) [Nordihydroguaiaretic acid] (2.5 µM)	0	0	0	0	0	0	0	0	0	0	0	0	0	0	0	0	0	0	0	0
O=C(NCCN1CCOCC1)Nc1nc2ccc(Sc3nnc4ccc(-c5ccc(F)cc5)nn34)cc2s1 (10 µM)	0	0	0	0	0	0	0	0	0	0	0	0	0	0	0	0	0	0	0	0
CN(C)c1ccc(-c2nc3ncc(Cl)c(N4CCN(CC(=O)Nc5nccs5)CC4)c3[nH]2)cc1 (2 µM)	0	0	0	0	0	0	0	0	0	0	0	0	0	0	0	0	0	0	0	0
COCCOCCc1c(C)c2cc(OC)c(O)c(C=O)c2oc1=O (10 µM)	0	0	0	0	0	0	0	0	0	0	0	0	0	0	0	0	0	0	0	0
O=C1Nc2ccc(CN3C(=O)CSC3=O)cc2/C1=C/c1cc(CN2CCOCC2)c[nH]1 (10 µM)	0	0	0	0	0	0	0	0	0	0	0	0	0	0	0	0	0	0	0	0
Nc1ncnc2c1nc(Br)n2[C@@H]1O[C@@H]2COP(=O)(O)O[C@H]2[C@H]1O [8-Bromo-cAMP sodium salt] (10 µM)	0	0	0	0	0	0	0	0	0	0	0	0	0	0	0	0	0	0	0	0
Cc1cc(C(=O)NC(C)(C)C)cc(C#Cc2ccc3c4c(oc3c2)C(C)(C)c2cc(NS(C)(=O)=O)ccc2C4=O)n1 (10 µM)	0	0	0	0	0	0	0	0	0	0	0	0	0	0	0	0	0	0	0	0
O=C(Nc1ccc(Cl)cc1)C1CCCN(C(=O)c2cc(C(F)(F)F)cc(C(F)(F)F)c2)C1 (stereo not given) (10 µM)	0	0	0	0	0	0	2	1	0	0	0	1	0	0	0	0	1	1	0	0
CCN1CCN(Cc2cnc(Nc3cc(-c4cc(F)c5nc(C)n(C(C)C)c5c4)c(F)cn3)nc2)CC1 (10 µM)	0	0	3	0	0	0	3	0	1	0	0	0	0	0	0	0	0	0	0	0
CC(C)(C)Cc1[nH]nc2c1[C@@](C)(c1ccccc1)C1=C(CC(C)(C)CC1=O)N2 (10 µM)	0	0	0	0	0	0	0	0	0	0	0	0	0	0	0	0	0	0	0	0
COc1ccc(Br)cc1NC(=O)Nc1cccc2c1ccn2Cc1ccnc(N)c1 (2.5 µM)	0	0	0	0	0	0	0	0	0	0	0	0	0	0	0	0	0	0	0	0
O=C(O)c1ccc(/C=C/S(=O)(=O)Cc2ccc(Cl)cc2)cc1 [Recilisib] (10 µM)	0	0	0	0	0	0	0	0	0	0	0	0	0	0	0	0	0	0	0	0
CC(C)Oc1ccc(F)c(-c2cnc(N)c(C(=O)Nc3cnccc3N3CCC[C@@H](C(=O)O)C3)n2)c1 (2 µM)	0	0	0	0	0	0	2	0	1	0	0	0	0	0	0	0	0	0	0	0
CC1(N)CCN(c2cccnc2NC(=O)c2nc(-c3ncccc3C(F)(F)F)cnc2N)CC1 [Darovasertib] (10 µM)	0	0	0	0	0	0	0	0	0	0	0	0	0	0	0	0	0	0	0	0
CNC(=O)c1cc2c(Oc3ccc(NC(=O)C4(C(=O)Nc5ccc(F)cc5)CC4)cc3)ccnc2cc1OC (2.5 µM)	2	0	2	0	0	2	2	0	3	0	0	1	1	0	0	0	0	2	3	0
CCCCCC(=O)N[C@@H](Cc1ccc(O)cc1)C(=O)OC (10 µM)	0	0	0	0	0	0	0	0	0	0	0	0	0	0	0	0	0	0	0	0
Cc1nc[nH]c1CN1CCN(C(=O)N[C@@H](CC(C)C)C(=O)O)[C@@H](Cc2ccccc2)C1=O (10 µM)	0	0	0	0	0	0	0	0	0	0	0	0	0	0	0	0	0	0	0	0
CC(Sc1nc2c(cnn2-c2cccc(Cl)c2)c(=O)[nH]1)C(N)=O (stereo not given) (10 µM)	0	0	0	0	0	0	0	0	1	0	0	0	0	0	0	0	0	0	0	0
CC1CN(CC2CCN(Cc3ccccc3)CC2)C(=O)N(c2cccc(C(=N)N)c2)C1 (stereo not given) (10 µM)	0	0	0	0	0	0	0	0	0	0	0	0	0	0	0	0	0	0	0	0
C=CC(=O)N1CCN(C(=O)CNc2cc(I)c(Cl)cc2O)CC1 [K-Ras(G12C) inhibitor 12] (10 µM)	0	0	0	0	0	0	0	0	0	0	0	0	0	0	0	0	0	0	0	0

Complete entries from above. Order of values: number of time points (ALK) | number of time points (ARAF) | number of time points (AURKA) | number of time points (AURKB) | number of time points (AURKC) | number of time points (BLK) | number of time points (BMX) | number of time points (BRAF) | number of time points (BRAF_V600E) | number of time points (BTK) | number of time points (CAMK2A) | number of time points (CAMK2G) | number of time points (CDK10) | number of time points (CDK2) | number of time points (CDK3) | number of time points (CDK5) | number of time points (CDK6) | number of time points (CHEK2) | number of time points (CSF1R) | number of time points (CSK)
CC(C)(C)Cc1[nH]nc2c1[C@@](C)(c1ccccc1)C1=C(CC(C)(C)CC1=O)N2 (10 µM) in the list: 0 | 0 | 0 | 0 | 0 | 0 | 0 | 0 | 0 | 0 | 0 | 0 | 0 | 0 | 0 | 0 | 0 | 0 | 0 | 0
C=CC(=O)N1CCN(C(=O)CNc2cc(I)c(Cl)cc2O)CC1 [K-Ras(G12C) inhibitor 12] (10 µM) in the list: 0 | 0 | 0 | 0 | 0 | 0 | 0 | 0 | 0 | 0 | 0 | 0 | 0 | 0 | 0 | 0 | 0 | 0 | 0 | 0
